No signal at the amounts used counts as a negative. Where a protein sequence is shown, tags need not be part of it.

One data set has as its target T1, Ino4pDBD WT (UniProt P13902).
T1 sequence (looked up): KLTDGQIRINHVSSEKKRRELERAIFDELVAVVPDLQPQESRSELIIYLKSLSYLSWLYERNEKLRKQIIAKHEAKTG
Nature of the data set: EMSA. The following applies: Ino4p alone; 20 mM Tris-HCl pH 8.0, 100 mM NaCl (buffer B); EMSA 1.5 uM DNA, 1.5-150 uM protein, 1 h on ice; recombinant protein; residues 40-117; label: 5'-FAM on sense strand.

The next data set has as its target T2, Ino2pDBD WT (UniProt P26798).
T2 sequence (looked up): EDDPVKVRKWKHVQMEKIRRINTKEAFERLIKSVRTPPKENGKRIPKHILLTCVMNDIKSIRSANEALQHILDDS
The data set is described as follows: EMSA. The following applies: Ino2p alone; 20 mM Tris-HCl pH 8.0, 100 mM NaCl (buffer B); EMSA 1.5 uM DNA, 1.5-150 uM protein, 1 h on ice; recombinant protein; residues 230-304; protein details: N-terminal His6; label: 5'-FAM on sense strand.

In the case of “GAATTTTCACATGCAGATC (double strand) [19bp-FAM promoter DNA]”, the binding result in the data set with Ino4pDBD WT and with Ino2pDBD WT was “no binding” throughout.

Source of the values: article PMC9315497, “Structural Analysis of Ino2p/Ino4p Mutual Interactions and Their Binding Interface with Promoter DNA”.
